Assay results: paper PMC2689706
Results are given in words; binding and its absence hold for the method and conditions named. Binding calls can cover weak binding; strength is not graded here. Sequences can lack the tags named with a protein. For part of these data: Binding seen in cells or lysates may run through a third protein.

T1: FLAG-tagged hUpf1 (human) (UniProt Q92900)
T1 sequence: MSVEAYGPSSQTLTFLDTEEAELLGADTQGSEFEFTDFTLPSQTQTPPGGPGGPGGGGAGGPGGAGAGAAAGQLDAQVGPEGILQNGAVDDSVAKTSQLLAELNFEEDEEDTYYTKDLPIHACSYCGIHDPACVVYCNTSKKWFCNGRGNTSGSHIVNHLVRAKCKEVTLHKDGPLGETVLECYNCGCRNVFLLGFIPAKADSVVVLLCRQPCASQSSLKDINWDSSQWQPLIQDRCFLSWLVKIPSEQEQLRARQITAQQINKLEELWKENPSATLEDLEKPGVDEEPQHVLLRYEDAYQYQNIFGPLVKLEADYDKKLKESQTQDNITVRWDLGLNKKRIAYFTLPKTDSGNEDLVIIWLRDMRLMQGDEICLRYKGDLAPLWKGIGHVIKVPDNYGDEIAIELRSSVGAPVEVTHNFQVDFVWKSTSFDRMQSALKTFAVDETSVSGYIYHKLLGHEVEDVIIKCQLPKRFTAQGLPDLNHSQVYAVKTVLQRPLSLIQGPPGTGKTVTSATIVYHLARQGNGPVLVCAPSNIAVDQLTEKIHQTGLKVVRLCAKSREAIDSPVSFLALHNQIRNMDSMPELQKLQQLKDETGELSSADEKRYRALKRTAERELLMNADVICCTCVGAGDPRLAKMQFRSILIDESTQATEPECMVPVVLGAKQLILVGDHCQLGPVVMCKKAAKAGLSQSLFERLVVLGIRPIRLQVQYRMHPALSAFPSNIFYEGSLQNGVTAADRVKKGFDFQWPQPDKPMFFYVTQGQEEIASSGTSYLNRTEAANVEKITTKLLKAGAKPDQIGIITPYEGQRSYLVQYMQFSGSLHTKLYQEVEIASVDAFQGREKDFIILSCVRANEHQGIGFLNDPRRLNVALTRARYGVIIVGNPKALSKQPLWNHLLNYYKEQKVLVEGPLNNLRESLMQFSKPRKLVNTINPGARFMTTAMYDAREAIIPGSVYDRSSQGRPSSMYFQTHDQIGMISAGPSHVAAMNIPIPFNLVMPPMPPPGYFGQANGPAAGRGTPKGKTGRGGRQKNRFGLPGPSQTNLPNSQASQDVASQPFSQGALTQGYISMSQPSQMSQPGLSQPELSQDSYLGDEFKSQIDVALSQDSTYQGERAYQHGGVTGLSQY

B1: FLAG-tagged hUpf1 (protein, UniProt Q92900 1-1129)
chain: T1 sequence

Columns and labels:
[1] = target: T1, FLAG-tagged hUpf1 (human); assay: co-IP; HEK 293T cells co-transfected with FLAG- and Myc-tagged proteins; RNase A-treated extract, 150 mM NaCl; anti-FLAG M2 agarose, 2 h, 4 °C; eluted with FLAG peptide; anti-Myc Western blot
[2] = target: Myc-tagged eRF3 (wild type, longer isoform) (human); assay: pull-down; Myc-eRF3 immobilised on anti-Myc resin; affinity-purified FLAG-tagged proteins added in 50 μl NET-2 with 0.1 mg/ml BSA and 0.2 mg/ml FLAG peptide, 4 °C, 2-3 h; anti-FLAG Western blot; increasing amounts of FLAG-PABPC1 or FLAG-hnRNP A1 as competitor; both purified

Molecule | binding [1] | binding [2]
Myc-tagged eRF3 (wild type, longer isoform) (human) | binds | –
Myc-tagged eRF3 KAKA mutant protein (human) | binds | –
B1 | – | binds
